Measurements taken from US20110217412A1, “CHOLESTEROL LOWERING SUPPLEMENT AND LOW CHOLESTEROL EGG PRODUCED BY USING THE SAME” (JINIS BIOPHARMACEUTICALS CO., priority 2004, published 2011).
For at least one compound, name, drawing or mass did not settle the structure.

Tests used:
ISA brown hens = test: Egg cholesterol analysis (yolk weight, gas chromatography of yolk cholesterol) of hens fed supplemented diet; assay type: in vivo; settings: compactin less than 0.03%; versus prior-art atorvastatin
Description: Healthy ISA brown hens, 45-week old, were assigned randomly to each dietary group (control group, 8 birds; experimental group, 6 birds each). Each bird was placed in an individual cage in an environmentally controlled room (25° C., 50% relative humidity, 16L:8D). The hens were allowed for 2 weeks in which to adapt to the feed with no additives and the housing. Control birds were fed a commercial diet based on corn and soybean meal (Table 1), while birds in experimental groups were fed diets supplemented with 0.003 or 0.03% of compactin (Sigma Aldrich Korea) for 6 weeks. Feed and water were provided ad libitum throughout the experiment. Feed consumption, egg production and egg weight were recorded daily. Egg production was expressed as percent hen day production; (100×number of eggs laid)/(number of hens×days).
For egg cholesterol analysis, eggs from each bird were collected and egg yolk was separated, weighed, and sampled for analysis. Lipids from eggs were extracted by the method of Folch et al. (1957). […] Cholesterol content was determined by a gas chromatography (Shimadzu, Japan) using column VB-1 (30 m×0.25 mm×0.25 μm, VICI Inc.) with a split ratio of 100:1 and nitrogen as carrier gas for a column flow rate of 0.54 mL/min. […] When expressed as total yolk cholesterol content, percentage changes compared to that of control were 16% and 29% at 0.003% and 0.03% compactin, respectively. […]

hens = settings: cited from earlier work

Structure (SMILES) | Effectiveness in producing low cholesterol eggs relative to atorvastatin (ISA brown hens) | Reduction in cholesterol lowering effect (hens; 3 and 4 weeks after administration) [%] | Effect on the cholesterol content in eggs (hens; according to U.S. Pat. No. 6,177,121)
CC[C@H](C)C(=O)O[C@H]1CCC=C2C=C[C@H](C)[C@H](CC[C@@H]3C[C@@H](O)CC(=O)O3)[C@H]21 [Compactin, compactin] | 2 or 3 times |  | 
CCC(C)(C)C(=O)O[C@H]1C[C@@H](C)C=C2C=C[C@H](C)[C@H](CC[C@@H]3C[C@@H](O)CC(=O)O3)[C@H]21 [simvastatin] |  | ~10 | distinctly effective
